Measured values from patent publication US20090137396A1, “Piperazine Compounds with a Herbicidal Action” (BASF SE, priority 2006, published 2009).
Some results were stated once for a whole list of compounds, not compound by compound. For some of these results: At least one structure is not confirmed: it was looked up by name or label, or the drawing left a doubt.

Columns and labels:
[1] = tested on: Amaranthus retroflexus (AMARE); assay: greenhouse experiment, post-emergence treatment, AMARE; type: in vivo; settings: post-emergence method, application rate 1 kg/ha; scale from 0 to 100
[2] = tested on: Abutilon theophrasti (ABUTH); assay: greenhouse experiment, post-emergence treatment, ABUTH; type: in vivo; settings: post-emergence method, application rate 3 kg/ha; scale from 0 to 100
Setaria faberi (SETFA) [3] = assay: greenhouse experiment, post-emergence treatment, SETFA; type: in vivo; settings: post-emergence method, scale from 0 to 100
APSEV = assay: greenhouse experiment, pre-emergence treatment, APSEV; type: in vivo, Apera spica-venti; settings: pre-emergence method, scale from 0 to 100
[4] = tested on: Echinochloa crus galli (ECHCG); assay: greenhouse experiment, pre-emergence treatment, ECHCG; type: in vivo; settings: pre-emergence method, scale from 0 to 100
SETIT = assay: greenhouse experiment, pre-emergence treatment, SETIT; type: in vivo; settings: pre-emergence method, application rate 3 kg/ha; scale from 0 to 100
From the text: The seeds of the test plants were sown separately for each species. For the pre-emergence treatment, the active ingredients, which had been suspended or emulsified in water, were applied directly after sowing by means of finely distributing nozzles. The containers were irrigated gently to promote germination and growth and subsequently covered with transparent plastic hoods until the plants had rooted. This cover causes uniform germination of the test plants, unless this has been impaired by the active ingredients. Depending on the species, the plants were kept at 10-25° C. or 20-35° C. The test period extended over 2 to 4 weeks. During this time, the plants were tended, and their response to the individual treatments was evaluated. Evaluation was carried out using a scale from 0 to 100. 100 means no emergence of the plants, or complete destruction of at least the aerial moieties, and 0 means no damage, or normal course of growth. Good herbicidal activity is given for values of at least 70 and very good herbicidal activity is given for values of at least 85. The plants used in the greenhouse experiments belonged to the following species: [table]

Setaria faberi (SETFA) [5] = assay: greenhouse experiment, pre-emergence treatment, SETFA; type: in vivo; settings: pre-emergence method, scale from 0 to 100

## CN1C(=O)C(Cc2ccccc2)N(C)C(=O)C1=Cc1cc2c(cc1[N+](=O)[O-])OCO2 (single isomer, unassigned) [Example 16]
[1]
  herbicidal activity against AMARE: very good (very good herbicidal activity is given for values of at least 85)

## CN1C(=O)C(Cc2ccccc2)N(C)C(=O)C1=Cc1ccccc1-c1nccs1 (single isomer, unassigned) [Example 44]
[2]
  herbicidal activity against ABUTH: good (Good herbicidal activity is given for values of at least 70)
Setaria faberi (SETFA) [3]; application rate 3 kg/ha
  herbicidal activity against SETFA: very good (very good herbicidal activity is given for values of at least 85)

## CN1C(=O)C(Cc2ccccc2)N(C)C(=O)C1=Cc1ccccc1-c1ncco1 (single isomer, unassigned) [Example 45]
APSEV; application rate 1 kg/ha
  herbicidal activity against APSEV: very good (very good herbicidal activity is given for values of at least 85)
[4]; application rate 1 kg/ha
  herbicidal activity against ECHCG: very good (very good herbicidal activity is given for values of at least 85)

## Cc1coc(-c2ccccc2C=C2C(=O)N(C)C(Cc3ccccc3)C(=O)N2C)n1 (single isomer, unassigned) [Example 52]
Setaria faberi (SETFA) [3]; application rate 3 kg/ha
  herbicidal activity against SETFA: good (Good herbicidal activity is given for values of at least 70)

## C=Cc1ccccc1C=C1C(=O)N(C)C(Cc2ccccc2)C(=O)N1C (single isomer, unassigned) [Example 129]
[1]
  herbicidal activity against AMARE: very good (very good herbicidal activity is given for values of at least 85)

## Cc1cc(-c2ccccc2C=C2C(=O)N(C)C(Cc3ccccc3)C(=O)N2C)on1 (single isomer, unassigned) [Example 147]
APSEV; application rate 1 kg/ha
  herbicidal activity against APSEV: very good (very good herbicidal activity is given for values of at least 85)
[4]; application rate 1 kg/ha
  herbicidal activity against ECHCG: good (Good herbicidal activity is given for values of at least 70)

## CN1C(=O)[C@H](Cc2ccccc2)N(C)C(=O)C1=Cc1ccccc1[N+](=O)[O-] (stereo in doubt) [Example 1, 3-Benzyl-1,4-dimethyl-6-(2-nitrobenzylidene)piperazine-2,5-dione]
[1]
  herbicidal activity against AMARE: very good (very good herbicidal activity is given for values of at least 85)

## CN1C(=O)C(Cc2ccccc2)N(C)C(=O)C1=Cc1c(F)cccc1I (stereo not shown) [Example 38]
APSEV; application rate 1 kg/ha
  herbicidal activity against APSEV: very good (very good herbicidal activity is given for values of at least 85)
[4]; application rate 1 kg/ha
  herbicidal activity against ECHCG: very good (very good herbicidal activity is given for values of at least 85)

## CN1C(=O)C(Cc2ccccc2)N(C)C(=O)C1=Cc1c(Cl)cccc1I (stereo not shown) [Example 40]
[4]; application rate 3 kg/ha
  herbicidal activity against ECHCG: very good (very good herbicidal activity is given for values of at least 85)
SETIT
  herbicidal activity against SETIT: very good (very good herbicidal activity is given for values of at least 85)

## CN1C(=O)C(Cc2ccccc2)N(C)C(=O)C1=Cc1ccccc1-c1cccs1 (stereo not shown) [Example 49]
Setaria faberi (SETFA) [3]; application rate 3 kg/ha
  herbicidal activity against SETFA: very good (very good herbicidal activity is given for values of at least 85)

## CN1C(=O)C(Cc2ccccc2)N(C)C(=O)C1=Cc1ccccc1-c1cccnc1 (stereo not shown) [Example 51]
Setaria faberi (SETFA) [3]; application rate 3 kg/ha
  herbicidal activity against SETFA: very good (very good herbicidal activity is given for values of at least 85)

## CN1C(=O)C(Cc2ccccc2)N(C)C(=O)C1=Cc1ccccc1C(F)(F)F (stereo not shown) [Example 54]
APSEV; application rate 1 kg/ha
  herbicidal activity against APSEV: very good (very good herbicidal activity is given for values of at least 85)

## CN1C(=O)C(Cc2ccccc2)N(C)C(=O)C1=Cc1cc(F)ccc1Br (stereo not shown) [Example 62]
Setaria faberi (SETFA) [5]; application rate 3 kg/ha
  herbicidal activity against SETFA: good (Good herbicidal activity is given for values of at least 70)

## CN1C(=O)C(Cc2ccccc2)N(C)C(=O)C1=Cc1c(Br)ccc(F)c1F (stereo not shown) [Example 119, 3-benzyl-1,4-dimethyl-6-(2-bromo-5,6-difluorobenzylidene)piperazine-2,5-dione]
APSEV; application rate 0.5 kg/ha
  herbicidal activity against APSEV: good (Good herbicidal activity is given for values of at least 70)

## CN1C(=O)C(Cc2ccccc2)N(C)C(=O)C1=Cc1ccccc1-c1cncnc1 (stereo not shown) [Example 124]
APSEV; application rate 1 kg/ha
  herbicidal activity against APSEV: very good (very good herbicidal activity is given for values of at least 85)

## CC(=O)N1C(=O)C(=Cc2ccccc2C#N)N(C)C(=O)C1Cc1ccccc1 (stereo not shown) [Example 140]
APSEV; application rate 1 kg/ha
  herbicidal activity against APSEV: very good (very good herbicidal activity is given for values of at least 85)
Setaria faberi (SETFA) [5]; application rate 1 kg/ha
  herbicidal activity against SETFA: very good (very good herbicidal activity is given for values of at least 85)

## CN1C(=O)C(Cc2ccccc2)N(C)C(=O)C1=C(Br)c1ccccc1C#N (stereo not shown) [Example 160]
[2]
  herbicidal activity against ABUTH: good (Good herbicidal activity is given for values of at least 70)
Setaria faberi (SETFA) [3]; application rate 3 kg/ha
  herbicidal activity against SETFA: very good (very good herbicidal activity is given for values of at least 85)

## CCN1C(=O)C(Cc2ccccc2)N(CC)C(=O)C1=Cc1ccccc1Br (stereo not shown) [Example 170]
Setaria faberi (SETFA) [3]; application rate 1 kg/ha
  herbicidal activity against SETFA: good (Good herbicidal activity is given for values of at least 70)

## CN1C(=O)C(Cc2ccccc2)N(C)C(=O)C1=Cc1ccsc1[N+](=O)[O-] (stereo not shown) [Example 191]
APSEV; application rate 0.5 kg/ha
  herbicidal activity against APSEV: good (Good herbicidal activity is given for values of at least 70)

## CN1C(=O)C(Cc2ccccc2)N(C)C(=O)C1=Cc1ncccc1[N+](=O)[O-] (stereo not shown) [Example 198]
APSEV; application rate 1 kg/ha
  herbicidal activity against APSEV: very good (very good herbicidal activity is given for values of at least 85)

## CN1C(=O)C(Cc2ccccc2)N(C)C(=O)C1=Cc1cccnc1Br (stereo not shown) [Example 204]
[4]; application rate 3 kg/ha
  herbicidal activity against ECHCG: very good (very good herbicidal activity is given for values of at least 85)
SETIT
  herbicidal activity against SETIT: very good (very good herbicidal activity is given for values of at least 85)

## CN1C(=O)C(Cc2ccccc2)N(C)C(=O)C1=Cc1cnccc1I (stereo not shown) [Example 206]
Setaria faberi (SETFA) [5]; application rate 2 kg/ha
  herbicidal activity against SETFA: good (Good herbicidal activity is given for values of at least 70)

## CN1C(=O)C(Cc2cccs2)N(C)C(=O)C1=Cc1ccccc1I (stereo not shown) [Example 214]
[4]; application rate 3 kg/ha
  herbicidal activity against ECHCG: good (Good herbicidal activity is given for values of at least 70)
